The record followed here is publication PMC11468809, “An Outer Membrane Vesicle‐Based Permeation Assay (OMPA) for Assessing Bacterial Bioavailability” (Advanced Healthcare Materials, 2021).

For the series the following is noted: not told. How it is done: 30 µL of the OMV or liposome suspension were given on top of membrane filters of a 96‐well filter plate (MultiScreen 96‐well filter plates with 0.4 µm PCTE membrane). Afterwards, filters were dried at 37°C inside a Memmert UF55 universal oven (fan at 100%). This process was repeated another two times. A six‐fold coating procedure was only followed for SEM‐imaging purposes. For permeation studies, the obtained coatings were covered with 40 µl of 0.5% w/v agarose solution using a direct diplacement pipette. Prior to permeation studies, the bottom of the coated filter was also coated with a thin film of 0.5% w/v agarose using a small brush.
Coated wells were incubated on the apical and basolateral side for 30 min with PBS (pH 7.4) at 37°C while shaken at 180 rpm. […] The absorbance of these dilutions was measured in a receiver plate using a Tecan Infinite 200 PRO (Tecan Trading AG, Maennedorf, Switzerland) plate reader. (Table S1, Supporting Information) 300 µL of fresh PBS were given into the acceptor wells of the receiver plate followed by absorbance measurements. Donor and acceptor plates were reassembled, incubated, and disassembled after 10, 20, 30, 45, 60, 90, and 120 min to measure the absorbance in the acceptor wells.

SMILES strings stand for the structures.

With `CCC[C@@H]1C[C@@H](C(=O)N[C@@H]([C@H]2O[C@H](SC)[C@H](O)[C@@H](O)[C@H]2O)[C@H](C)Cl)N(C)C1` [clindamycin], the “permeation compared with the OMV-based models” value was “permeate much better”.
